{"sequences": {"note": "Protein sequences, listed by entry. Tags and fused reporters are not part of them. Lines headed by an entry give the natural chain unless they say otherwise; changes in a name come on top.", "UniProt P55211": "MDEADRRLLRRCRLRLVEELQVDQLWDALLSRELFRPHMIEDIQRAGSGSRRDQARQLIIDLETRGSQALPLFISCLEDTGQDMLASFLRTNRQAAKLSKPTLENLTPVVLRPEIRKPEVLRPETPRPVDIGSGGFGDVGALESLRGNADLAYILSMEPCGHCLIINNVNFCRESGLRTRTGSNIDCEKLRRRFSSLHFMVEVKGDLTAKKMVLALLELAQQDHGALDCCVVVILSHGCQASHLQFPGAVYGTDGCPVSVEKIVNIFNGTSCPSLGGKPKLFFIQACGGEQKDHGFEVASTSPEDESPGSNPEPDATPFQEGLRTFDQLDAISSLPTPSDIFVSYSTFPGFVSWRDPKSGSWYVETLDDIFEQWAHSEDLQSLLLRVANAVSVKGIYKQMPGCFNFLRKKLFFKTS"}, "source": "paper PMC3561343", "molecular_target": "VCP-Flag (valosin-containing protein, wild type) (UniProt P55072)", "assay": "co-IP; AGS cells expressing VCP-Flag, Tri-mut VCP-Flag or empty vector, incubated with H. pylori (6 hr), with MG-132 or LY294002 pretreatment in some panels; lysate precipitated with anti-Flag M2 affinity gel 4 hr at 4°C; immunoblot of the precipitate", "note": "These are yes or no findings as the source states them, for the method shown. Binding seen in cells or lysates may run through a third protein. Binding can be weak; no strength is given.", "data": [{"substance": "Caspase9 (from UniProt P55211)", "values": [{"measurement": "binding", "value": "binds"}]}]}
